Binding data for 3 substances are collected here from article PMC6172193.

Sequences of proteins named here, by UniProt entry; tags and fusion partners are left off. A change or cut given only in a name is not applied to a line headed by its entry.
UniProt Q86Y07: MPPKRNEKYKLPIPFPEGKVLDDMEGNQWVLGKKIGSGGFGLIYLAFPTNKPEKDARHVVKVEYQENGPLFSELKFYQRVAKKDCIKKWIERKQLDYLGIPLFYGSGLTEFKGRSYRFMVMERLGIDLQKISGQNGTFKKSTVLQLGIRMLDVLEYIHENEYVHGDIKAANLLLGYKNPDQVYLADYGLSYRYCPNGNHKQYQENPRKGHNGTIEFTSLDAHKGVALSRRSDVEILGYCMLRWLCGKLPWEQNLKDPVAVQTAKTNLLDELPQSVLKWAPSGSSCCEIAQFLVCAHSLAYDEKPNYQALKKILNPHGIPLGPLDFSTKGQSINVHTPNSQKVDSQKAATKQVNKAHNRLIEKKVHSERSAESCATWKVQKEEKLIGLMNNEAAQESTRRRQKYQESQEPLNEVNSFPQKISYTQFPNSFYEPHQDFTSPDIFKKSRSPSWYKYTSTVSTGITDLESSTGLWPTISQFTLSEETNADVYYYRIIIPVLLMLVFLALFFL
UniProt P31749: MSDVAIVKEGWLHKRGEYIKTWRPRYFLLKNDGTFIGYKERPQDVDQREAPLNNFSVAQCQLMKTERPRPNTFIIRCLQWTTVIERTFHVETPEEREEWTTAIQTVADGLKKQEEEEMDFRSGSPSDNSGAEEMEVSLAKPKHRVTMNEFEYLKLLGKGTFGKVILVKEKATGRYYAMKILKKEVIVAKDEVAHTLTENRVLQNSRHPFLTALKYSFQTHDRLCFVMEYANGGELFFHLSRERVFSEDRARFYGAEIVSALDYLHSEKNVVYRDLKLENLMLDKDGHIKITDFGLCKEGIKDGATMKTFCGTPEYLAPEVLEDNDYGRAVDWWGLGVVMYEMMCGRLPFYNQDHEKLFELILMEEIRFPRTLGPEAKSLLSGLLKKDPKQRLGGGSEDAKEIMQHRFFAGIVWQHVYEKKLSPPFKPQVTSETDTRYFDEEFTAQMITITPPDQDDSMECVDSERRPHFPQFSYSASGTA
UniProt Q9Y243: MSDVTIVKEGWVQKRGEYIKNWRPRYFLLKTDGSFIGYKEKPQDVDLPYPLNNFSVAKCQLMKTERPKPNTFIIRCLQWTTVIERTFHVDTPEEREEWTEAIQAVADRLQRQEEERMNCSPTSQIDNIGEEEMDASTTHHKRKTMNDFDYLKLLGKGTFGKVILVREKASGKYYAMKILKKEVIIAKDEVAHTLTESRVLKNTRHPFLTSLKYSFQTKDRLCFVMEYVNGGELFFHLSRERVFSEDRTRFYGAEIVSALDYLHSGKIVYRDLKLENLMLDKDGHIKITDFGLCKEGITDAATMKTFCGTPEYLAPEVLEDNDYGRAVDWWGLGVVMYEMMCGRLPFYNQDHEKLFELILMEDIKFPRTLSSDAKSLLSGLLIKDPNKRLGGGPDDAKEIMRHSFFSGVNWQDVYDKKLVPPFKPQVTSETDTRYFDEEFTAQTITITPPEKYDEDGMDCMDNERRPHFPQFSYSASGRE

These are yes or no findings as the source states them, for the method shown. Binding seen in cells or lysates may run through a third protein. Some results given as binding are weak or reduced against the parent protein; the word gives no strength. For part of these data: Where a sequence is shown, tags or fusion partners need not be part of it.

The target of test [1] is FLAG-tagged VRK2A (wild type) (human) (UniProt Q86Y07). As to the kind of experiment: co-IP; 293T cells transfected with tagged VRK and Akt constructs (FLAG-VRK2, HA-Akt); immunoblot; which partner was precipitated is not told. On the technique in general: A western blot detects proteins with antibodies after separation by electrophoresis.
The target of a further test is T1, EGFP-Phafin2 (UniProt Q9H8W4).
T1 sequence: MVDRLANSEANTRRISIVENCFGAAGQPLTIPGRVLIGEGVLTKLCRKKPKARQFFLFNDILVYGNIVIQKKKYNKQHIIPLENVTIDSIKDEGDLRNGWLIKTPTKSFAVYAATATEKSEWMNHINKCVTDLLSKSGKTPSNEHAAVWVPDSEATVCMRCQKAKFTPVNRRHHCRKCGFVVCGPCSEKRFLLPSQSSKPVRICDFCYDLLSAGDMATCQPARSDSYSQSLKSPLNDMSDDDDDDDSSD
Description: co-IP; 293T cells cotransfected with FLAG-VRK2, HA-Akt2 and EGFP-Phafin2; precipitation with anti-FLAG and anti-GFP antibodies, immunoblot with anti-GFP, anti-HA and anti-FLAG.

As for Akt1 (from UniProt P31749 1-480), the binding result in test [1] is recorded as “binds”.

On to Akt3 (from UniProt Q9Y243 1-479), for which the binding result in test [1] is “no binding”. Take “FLAG-tagged VRK2A (wild type) (from UniProt Q86Y07-1 1-508)”: in the test with EGFP-Phafin2, the binding entry is “no binding”.
